Literature values in patent US20150182553A1, “USE OF POLYMER D-LACTIC ACID (PDLA) TO TREAT MALARIA” (priority 2013, published 2015).
At least one structure is not confirmed: it was looked up by name or label, or the drawing left a doubt.

Details: moles of PDLA to moles of L-lactate

CC(O)C(=O)OC(C)C(=O)O (stereo not shown) [PDLA dimer (n=2)]
approximate ratio in which PDLA oligomer sequesters L-lactate: ~2 moles of PDLA to 1 mole of L-lactate
